Experimental data from the supplement of paper PMC10849652.
This is one part of the list. Residues, ends and D or L forms follow the SMILES beside them. *: point of attachment. Cbz = O=C(OCc1ccccc1)*

Amino acid sequences for entries named in this document (tags omitted). A change or cut given only in a name is not applied to a line headed by its entry.
UniProt Q6YBV0: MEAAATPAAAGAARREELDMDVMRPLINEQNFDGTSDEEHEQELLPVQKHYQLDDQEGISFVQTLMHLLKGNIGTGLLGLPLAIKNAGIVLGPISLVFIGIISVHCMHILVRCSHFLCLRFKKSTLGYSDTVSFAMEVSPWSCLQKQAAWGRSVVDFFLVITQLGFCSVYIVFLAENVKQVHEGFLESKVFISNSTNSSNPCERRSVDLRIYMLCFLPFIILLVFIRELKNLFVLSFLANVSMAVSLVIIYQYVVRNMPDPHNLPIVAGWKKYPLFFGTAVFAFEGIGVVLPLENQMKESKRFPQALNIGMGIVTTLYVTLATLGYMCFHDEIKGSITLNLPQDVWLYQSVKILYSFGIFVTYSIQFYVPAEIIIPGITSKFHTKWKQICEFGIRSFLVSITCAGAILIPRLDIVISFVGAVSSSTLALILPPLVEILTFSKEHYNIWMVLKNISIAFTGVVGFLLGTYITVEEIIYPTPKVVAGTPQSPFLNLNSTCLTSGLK
UniProt Q96QE2: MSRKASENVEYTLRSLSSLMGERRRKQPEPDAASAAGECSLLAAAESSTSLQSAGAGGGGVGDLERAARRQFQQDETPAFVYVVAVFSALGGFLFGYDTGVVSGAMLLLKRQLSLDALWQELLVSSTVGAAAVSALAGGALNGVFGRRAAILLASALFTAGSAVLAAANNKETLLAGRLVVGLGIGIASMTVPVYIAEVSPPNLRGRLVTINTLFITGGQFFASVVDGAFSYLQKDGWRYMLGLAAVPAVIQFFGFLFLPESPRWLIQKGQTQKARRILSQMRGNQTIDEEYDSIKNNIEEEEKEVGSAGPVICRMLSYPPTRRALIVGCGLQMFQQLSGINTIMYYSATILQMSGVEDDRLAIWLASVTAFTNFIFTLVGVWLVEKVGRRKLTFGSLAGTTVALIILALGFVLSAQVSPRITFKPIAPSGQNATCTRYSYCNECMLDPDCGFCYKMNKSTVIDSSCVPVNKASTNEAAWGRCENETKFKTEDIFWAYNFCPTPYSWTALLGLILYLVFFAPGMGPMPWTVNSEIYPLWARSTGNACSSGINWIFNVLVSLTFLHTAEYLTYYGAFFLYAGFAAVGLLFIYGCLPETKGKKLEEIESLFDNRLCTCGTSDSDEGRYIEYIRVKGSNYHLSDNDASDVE
UniProt Q5SVS4: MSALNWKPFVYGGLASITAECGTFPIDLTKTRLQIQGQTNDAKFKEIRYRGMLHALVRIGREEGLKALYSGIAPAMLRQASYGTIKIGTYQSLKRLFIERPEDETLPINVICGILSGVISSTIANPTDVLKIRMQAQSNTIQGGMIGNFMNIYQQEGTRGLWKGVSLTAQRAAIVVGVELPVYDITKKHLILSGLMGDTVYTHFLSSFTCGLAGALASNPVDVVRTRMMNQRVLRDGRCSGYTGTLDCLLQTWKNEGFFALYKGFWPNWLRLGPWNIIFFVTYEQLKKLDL
UniProt Q8N357: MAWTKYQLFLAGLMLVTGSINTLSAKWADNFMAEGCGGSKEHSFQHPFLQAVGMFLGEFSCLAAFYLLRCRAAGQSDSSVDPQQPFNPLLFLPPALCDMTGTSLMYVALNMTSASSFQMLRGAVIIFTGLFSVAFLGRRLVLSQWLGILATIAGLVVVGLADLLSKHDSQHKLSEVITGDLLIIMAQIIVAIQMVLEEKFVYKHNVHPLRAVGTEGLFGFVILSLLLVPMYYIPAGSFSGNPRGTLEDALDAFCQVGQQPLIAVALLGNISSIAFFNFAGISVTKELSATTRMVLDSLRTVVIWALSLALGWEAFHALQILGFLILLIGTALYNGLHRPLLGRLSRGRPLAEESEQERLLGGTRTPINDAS
UniProt Q0GE19: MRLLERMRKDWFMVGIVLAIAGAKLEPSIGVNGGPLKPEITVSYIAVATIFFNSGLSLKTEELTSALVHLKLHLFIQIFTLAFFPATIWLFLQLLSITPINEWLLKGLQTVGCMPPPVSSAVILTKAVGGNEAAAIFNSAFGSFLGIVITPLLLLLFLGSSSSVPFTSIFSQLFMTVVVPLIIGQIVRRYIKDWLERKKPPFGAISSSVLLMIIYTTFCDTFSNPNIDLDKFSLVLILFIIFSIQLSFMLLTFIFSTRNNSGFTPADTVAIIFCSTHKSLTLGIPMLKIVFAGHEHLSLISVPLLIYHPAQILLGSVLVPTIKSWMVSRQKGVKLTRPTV
UniProt A1A5C7: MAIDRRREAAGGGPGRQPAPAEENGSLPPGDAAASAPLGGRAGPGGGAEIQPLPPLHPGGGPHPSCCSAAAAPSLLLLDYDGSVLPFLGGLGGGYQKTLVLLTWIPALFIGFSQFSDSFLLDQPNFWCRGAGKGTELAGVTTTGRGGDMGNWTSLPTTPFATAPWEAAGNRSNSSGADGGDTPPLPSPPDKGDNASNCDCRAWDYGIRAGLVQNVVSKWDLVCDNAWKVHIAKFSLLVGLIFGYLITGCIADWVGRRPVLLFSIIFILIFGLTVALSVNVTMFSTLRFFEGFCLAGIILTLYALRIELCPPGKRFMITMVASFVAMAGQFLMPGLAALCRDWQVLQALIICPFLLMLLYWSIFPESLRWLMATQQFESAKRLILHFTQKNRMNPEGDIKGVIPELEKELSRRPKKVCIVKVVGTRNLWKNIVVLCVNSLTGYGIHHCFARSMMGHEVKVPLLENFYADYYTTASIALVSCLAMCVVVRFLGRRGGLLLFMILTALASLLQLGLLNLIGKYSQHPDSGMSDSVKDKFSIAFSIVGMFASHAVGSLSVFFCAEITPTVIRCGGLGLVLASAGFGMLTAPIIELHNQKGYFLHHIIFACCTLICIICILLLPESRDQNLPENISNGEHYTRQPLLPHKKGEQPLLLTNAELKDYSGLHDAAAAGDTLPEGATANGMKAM
UniProt Q9NRA2: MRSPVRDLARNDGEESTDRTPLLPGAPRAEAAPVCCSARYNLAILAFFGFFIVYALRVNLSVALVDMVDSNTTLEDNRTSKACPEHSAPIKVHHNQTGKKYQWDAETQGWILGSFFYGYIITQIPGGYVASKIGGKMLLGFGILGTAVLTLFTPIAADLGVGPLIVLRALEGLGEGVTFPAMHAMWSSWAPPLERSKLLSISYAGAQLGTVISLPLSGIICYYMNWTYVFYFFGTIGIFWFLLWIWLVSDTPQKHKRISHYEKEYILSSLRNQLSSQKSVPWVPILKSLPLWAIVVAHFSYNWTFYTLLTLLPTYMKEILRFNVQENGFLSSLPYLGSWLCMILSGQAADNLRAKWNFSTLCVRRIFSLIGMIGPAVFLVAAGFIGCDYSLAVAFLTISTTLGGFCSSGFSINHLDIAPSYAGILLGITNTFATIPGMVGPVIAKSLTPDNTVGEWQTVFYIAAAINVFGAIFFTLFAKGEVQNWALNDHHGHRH
UniProt Q8N8R3: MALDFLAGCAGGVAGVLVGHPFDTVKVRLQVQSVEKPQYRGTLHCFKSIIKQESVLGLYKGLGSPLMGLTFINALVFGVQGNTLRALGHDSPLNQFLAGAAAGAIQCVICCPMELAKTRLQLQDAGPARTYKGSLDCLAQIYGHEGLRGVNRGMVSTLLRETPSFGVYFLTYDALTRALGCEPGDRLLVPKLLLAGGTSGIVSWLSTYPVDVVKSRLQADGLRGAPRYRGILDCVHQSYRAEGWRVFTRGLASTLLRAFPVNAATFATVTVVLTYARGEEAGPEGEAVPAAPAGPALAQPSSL
UniProt Q9C0K1: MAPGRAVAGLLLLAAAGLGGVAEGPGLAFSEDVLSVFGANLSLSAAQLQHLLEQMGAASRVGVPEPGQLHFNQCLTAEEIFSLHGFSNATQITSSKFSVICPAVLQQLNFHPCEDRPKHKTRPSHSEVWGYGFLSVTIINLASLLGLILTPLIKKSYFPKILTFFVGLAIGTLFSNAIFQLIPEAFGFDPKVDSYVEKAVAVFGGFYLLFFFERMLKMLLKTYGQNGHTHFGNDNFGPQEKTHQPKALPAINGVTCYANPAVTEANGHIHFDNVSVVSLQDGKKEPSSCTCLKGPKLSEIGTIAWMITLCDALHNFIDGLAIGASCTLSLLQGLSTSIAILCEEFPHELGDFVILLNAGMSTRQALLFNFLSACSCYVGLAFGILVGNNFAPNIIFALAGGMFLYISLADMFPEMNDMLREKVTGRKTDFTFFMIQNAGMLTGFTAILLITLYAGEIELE
UniProt P14672: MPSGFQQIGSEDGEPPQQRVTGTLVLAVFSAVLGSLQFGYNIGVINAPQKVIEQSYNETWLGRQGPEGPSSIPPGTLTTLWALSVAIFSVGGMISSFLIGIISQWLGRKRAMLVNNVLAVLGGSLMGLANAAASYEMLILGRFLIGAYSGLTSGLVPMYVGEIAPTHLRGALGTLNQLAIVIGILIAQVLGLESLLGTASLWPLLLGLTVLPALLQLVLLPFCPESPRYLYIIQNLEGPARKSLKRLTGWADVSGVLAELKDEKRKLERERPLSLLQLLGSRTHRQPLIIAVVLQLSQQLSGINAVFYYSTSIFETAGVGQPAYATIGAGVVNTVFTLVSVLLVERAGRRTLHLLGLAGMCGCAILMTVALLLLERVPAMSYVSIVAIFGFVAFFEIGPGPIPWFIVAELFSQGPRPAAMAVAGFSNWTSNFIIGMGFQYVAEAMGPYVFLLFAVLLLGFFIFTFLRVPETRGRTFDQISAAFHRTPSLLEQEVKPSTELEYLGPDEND
UniProt Q9BRY0: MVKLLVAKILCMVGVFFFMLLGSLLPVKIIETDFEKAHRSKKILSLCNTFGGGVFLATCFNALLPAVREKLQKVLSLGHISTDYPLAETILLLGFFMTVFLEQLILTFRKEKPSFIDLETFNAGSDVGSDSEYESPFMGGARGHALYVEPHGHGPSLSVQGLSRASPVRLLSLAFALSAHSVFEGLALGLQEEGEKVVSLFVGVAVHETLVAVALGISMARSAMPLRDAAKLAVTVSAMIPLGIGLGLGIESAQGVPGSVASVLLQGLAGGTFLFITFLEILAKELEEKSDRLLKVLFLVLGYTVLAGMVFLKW
UniProt O60779: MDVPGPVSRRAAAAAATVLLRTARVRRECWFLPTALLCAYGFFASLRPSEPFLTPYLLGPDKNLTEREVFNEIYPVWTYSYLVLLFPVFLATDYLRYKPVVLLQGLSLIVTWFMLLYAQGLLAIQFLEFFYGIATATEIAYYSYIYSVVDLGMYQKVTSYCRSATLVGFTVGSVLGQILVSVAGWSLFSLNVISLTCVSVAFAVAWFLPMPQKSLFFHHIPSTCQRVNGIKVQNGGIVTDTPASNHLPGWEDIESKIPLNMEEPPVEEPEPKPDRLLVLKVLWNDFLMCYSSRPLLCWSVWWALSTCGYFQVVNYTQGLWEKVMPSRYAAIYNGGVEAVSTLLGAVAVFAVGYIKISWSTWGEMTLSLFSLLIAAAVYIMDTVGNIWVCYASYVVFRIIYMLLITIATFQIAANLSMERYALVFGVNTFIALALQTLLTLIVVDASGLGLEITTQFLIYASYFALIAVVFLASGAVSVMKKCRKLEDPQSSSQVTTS
UniProt P43003, whole entry, looked up: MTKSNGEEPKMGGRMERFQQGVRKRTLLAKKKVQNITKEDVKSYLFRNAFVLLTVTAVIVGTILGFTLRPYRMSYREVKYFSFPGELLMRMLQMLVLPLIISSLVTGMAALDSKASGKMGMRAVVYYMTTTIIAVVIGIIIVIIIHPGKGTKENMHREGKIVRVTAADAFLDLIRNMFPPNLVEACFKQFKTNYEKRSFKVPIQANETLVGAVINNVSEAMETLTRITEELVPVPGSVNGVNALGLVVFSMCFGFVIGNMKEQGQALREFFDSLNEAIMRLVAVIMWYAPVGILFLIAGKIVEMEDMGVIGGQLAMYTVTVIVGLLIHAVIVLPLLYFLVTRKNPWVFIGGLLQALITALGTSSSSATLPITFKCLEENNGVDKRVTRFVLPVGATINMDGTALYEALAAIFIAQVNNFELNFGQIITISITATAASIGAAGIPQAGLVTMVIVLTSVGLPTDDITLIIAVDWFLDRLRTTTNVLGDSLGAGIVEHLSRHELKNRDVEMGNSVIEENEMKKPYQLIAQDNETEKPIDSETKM
UniProt Q9H015: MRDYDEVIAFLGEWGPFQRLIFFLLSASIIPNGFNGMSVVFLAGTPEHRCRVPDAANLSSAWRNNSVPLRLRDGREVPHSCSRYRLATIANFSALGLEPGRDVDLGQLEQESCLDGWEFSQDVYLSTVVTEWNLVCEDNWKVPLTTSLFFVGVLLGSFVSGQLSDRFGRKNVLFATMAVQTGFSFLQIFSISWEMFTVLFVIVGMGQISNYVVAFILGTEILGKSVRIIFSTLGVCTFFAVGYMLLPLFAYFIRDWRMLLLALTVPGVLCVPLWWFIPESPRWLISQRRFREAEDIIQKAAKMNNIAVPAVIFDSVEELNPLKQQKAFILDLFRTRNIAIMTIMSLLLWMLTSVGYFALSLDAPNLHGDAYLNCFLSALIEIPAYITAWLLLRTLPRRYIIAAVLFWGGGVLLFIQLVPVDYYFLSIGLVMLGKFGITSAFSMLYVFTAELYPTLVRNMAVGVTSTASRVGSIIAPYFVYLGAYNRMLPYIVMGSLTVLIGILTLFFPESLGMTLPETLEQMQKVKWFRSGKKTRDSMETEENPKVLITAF

Each target was assayed with CC(C)C[C@@H](C=O)NC(=O)[C@H](CC(C)C)NC(=O)[C@H](CC(C)C)NC(=O)OCc1ccccc1 (assay: log2 fold change, soluble protein after heating vs DMSO (PISA); higher = thermal stabilisation; K562 cells, 10 uM, 30 min; active = over 0.2 and 3.5 SD of the protein, either way, in both replicates (recomputed)).
Summary of the method: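 K562 cells at 2×10^6 cells/mL were treated with 10 μM compound for 30 min. Aliquots were heated for 3 min across 48°C-58°C, pooled, and extracted in PBS with 0.5% NP-40 at 4°C; soluble protein was the supernatant after 21,000xg for 90 min. Soluble protein was quantified by TMTpro 16plex LC-MS/MS with channel sums equalised, and reported as log2 fold change in thermal stability against DMSO controls, with values from duplicates.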

log2 fold change, inactive:
SLC36A4 (UniProt Q6YBV0) 0.092, SLC2A13 (UniProt Q96QE2) -0.057, SLC25A30 (UniProt Q5SVS4) 0.038, SLC35F6 (UniProt Q8N357) 0.319, SLC10A7 isoform 1 (UniProt Q0GE19) 0, SLC22A23 (UniProt A1A5C7) 0.064, SLC27A6 (UniProt Q9Y2P4) 0.001, SLC17A5 (UniProt Q9NRA2) 0.086, SLC25A29 (UniProt Q8N8R3) 0.058, SLC39A8 (UniProt Q9C0K1) 0.002, SLC2A4 (UniProt P14672) 0.449, SLC39A3 (UniProt Q9BRY0) -0.052, SLC19A2 (UniProt O60779) -0.12, SLC1A3 (UniProt P43003) -0.064, SLC22A4 (UniProt Q9H015) 0.133, SLC41A1 (UniProt Q8IVJ1) 0.031
